PubChem BioAssay AID743454 – Peter MacCallum Cancer Centre – 2014

- Screen: 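Genes whose loss kills vorinostat-resistant colon cancer cells under vorinostat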 (primary screen)
- System: human HCT116-VR colon cancer cells, selected for vorinostat resistance
- Reagents: siRNA pool against human genes, 40 nM siRNA pool
- Time to read-out: vorinostat for 24 h, read-out about 72 h after transfection
- Treatment: vorinostat at 2.5 µM final
- Read-out: 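Two measures, CellTiter-Fluor viability and luminescent caspase 3/7 activity, each as fold change against same-plate mock wells, mean of duplicates, then screen-wide robust z-score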
- Direction: viability robust z-score: higher = more viable cells than screen typical; caspase robust z-score: higher = more caspase 3/7 activity than screen typical
- Rule for the call: 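Hits are knock-downs in viability class RV1/RV2 or caspase class CA1/CA2, excluding ones that killed cells in the no-drug cell-count arm; hits then retested with single siRNAs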
The deposit covers about 18,000 reagents; shown is an unselected part. 450 of them (2.5%) were called active. 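Single biological run; no consistent viability z cut-off exists, so the class columns, not z-scores, define the calls.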 No sequences are given here.

Depletion of GBP5 (guanylate binding protein 5) [SID134322057] came out at: viability hit class no change; caspase hit class no change; viability robust z-score 0.36; caspase robust z-score 3.76; inactive.
For NEK1 (NIMA related kinase 1) [SID152155530], the entry reads viability hit class no change; caspase hit class no change; viability robust z-score -0.43; caspase robust z-score -0.9; inactive.
After knock-down of RPA1 (replication protein A1) [SID135623010] the results were viability hit class no change; caspase hit class no change; viability robust z-score -2.77; caspase robust z-score 3.65; inactive.
Depletion of ZNF560 (zinc finger protein 560) [SID135623104] gave: viability hit class no change; caspase hit class no change; viability robust z-score 1.31; caspase robust z-score -0.12; inactive.
Against GSTM3 (glutathione S-transferase mu 3) [SID134321407], the values are viability hit class no change; caspase hit class no change; viability robust z-score -1.09; caspase robust z-score 2.6; inactive.
Against APH1A (aph-1A gamma-secretase subunit) [SID135621447], the values are viability hit class no change; caspase hit class no change; viability robust z-score -1.4; caspase robust z-score -0.4; inactive.
SIGMAR1 (sigma receptor chaperone 1) [SID152149740] scored viability hit class no change; caspase hit class no change; viability robust z-score 0.73; caspase robust z-score 3.1; inactive.
Knock-down of U2SURP (U2 snRNP associated SURP domain containing) [SID135624389] gave: viability hit class no change; caspase hit class no change; viability robust z-score -0.7; caspase robust z-score -0.44; inactive.
After knock-down of KCNC4 (potassium voltage-gated channel subfamily C member 4) [SID152149581], the screen gave viability hit class no change; caspase hit class no change; viability robust z-score 0.35; caspase robust z-score 1.19; inactive.
PCDHGA1 (protocadherin gamma subfamily A, 1) [SID134317508] gave viability hit class no change; caspase hit class no change; viability robust z-score -0.1; caspase robust z-score 1.64; inactive.
Depletion of CD58 (CD58 molecule) [SID134310510] came out at: viability hit class no change; caspase hit class no change; viability robust z-score 1.19; caspase robust z-score 0.14; inactive.
DGKE (diacylglycerol kinase epsilon) [SID56479247] showed viability hit class no change; caspase hit class no change; viability robust z-score -2.27; caspase robust z-score 1.76; inactive.
LZTFL1 (leucine zipper transcription factor like 1) [SID152154681] showed viability hit class no change; caspase hit class no change; viability robust z-score -0.21; caspase robust z-score 0.56; inactive.
After knock-down of CEACAM5 (CEA cell adhesion molecule 5) [SID152155735], the screen gave viability hit class no change; caspase hit class no change; viability robust z-score 1.36; caspase robust z-score 0.45; inactive.
Depletion of TMX2 (thioredoxin related transmembrane protein 2) [SID135624093] gave: viability hit class no change; caspase hit class no change; viability robust z-score -0.7; caspase robust z-score -0.92; inactive.
MEPE (matrix extracellular phosphoglycoprotein) [SID152149695] gave viability hit class no change; caspase hit class no change; viability robust z-score -0.6; caspase robust z-score -0.72; inactive.
Depletion of BBC3 (BCL2 binding component 3) [SID152155898] came out at: viability hit class no change; caspase hit class no change; viability robust z-score 0.72; caspase robust z-score 1.73; inactive.
After knock-down of CALB1 (calbindin 1) [SID135622238], the record shows viability hit class no change; caspase hit class no change; viability robust z-score -1.7; caspase robust z-score 3.78; inactive.
CAMK2A (calcium/calmodulin dependent protein kinase II alpha) [SID56478931] scored viability hit class no change; caspase hit class no change; viability robust z-score -0.92; caspase robust z-score 0.7; inactive.
After knock-down of KRT32 (keratin 32) [SID152147823], the record shows viability hit class no change; caspase hit class no change; viability robust z-score 0.68; caspase robust z-score 4.26; inactive.
Depletion of SLC26A10P [SID135621386] came out at: viability hit class no change; caspase hit class no change; viability robust z-score 0.02; caspase robust z-score -0.29; inactive.

Laid out differently: results already given.
gene knocked down	PubChem SID	viability hit class	caspase hit class	viability robust z-score	caspase robust z-score	Call
LZTFL1 (leucine zipper transcription factor like 1)	SID152154681	no change	no change	-0.21	0.56	inactive
CEACAM5 (CEA cell adhesion molecule 5)	SID152155735	no change	no change	1.36	0.45	inactive
TMX2 (thioredoxin related transmembrane protein 2)	SID135624093	no change	no change	-0.7	-0.92	inactive
